# Where two headings read alike, the source gives them in different places. The campaign covered roughly 3,300 compounds. About 95 (3%) showed an effect of 50% or more. This is one part of the list.
# Test system: HCoV-229E
# Set-up: species or system Huh-7; HTS, protection from HCoV-229E induced cell death, luminescent cell viability (CellCounting-Lite 2.0), inhibition rate
# Conditions: 24 h post infection, 1 h compound pre-incubation, 10 µM, inhibitor
SMILES,229E Inhibition rate [%],"229E Inhibition rate (229E Inhibition rate, 24 h) [%]"
COc1ccc2[nH]cc(CCNC(C)=O)c2c1 [Melatonin],45.9,
O=C(CCc1ccc(O)cc1)c1c(O)cc(O[C@@H]2O[C@H](CO)[C@@H](O)[C@H](O)[C@H]2O)cc1O [Trilobatin],12.6,
NC[C@H]1O[C@H](O[C@H]2[C@H](O[C@@H]3O[C@H](CO)[C@@H](O)[C@H]3O)[C@@H](O)[C@H](N)C[C@@H]2N)[C@H](N)[C@@H](O)[C@@H]1O [Ribostamycin (sulfate)],15.2,
CC(=O)O[C@H]1C[C@@]2(C)[C@@H](C[C@H]1O)C(=O)C=C1[C@@H]2CC[C@]2(C)[C@@H]([C@@](C)(O)[C@H](O)CCC(C)(C)O)CC[C@@]12O [2-O-Acetyl-20-hydroxyecdysone],0,
CC1=C2[C@@H](OC1=O)[C@H](O)[C@]13[C@H]4C[C@@H](C(C)(C)C)[C@]15[C@@H](OC(=O)[C@@H]5O)O[C@@]23C(=O)O4 [Ginkgolide K],62,
COc1ccc(C(=O)O[C@H]2[C@H](O[C@@H]3[C@@H](OC(C)=O)[C@H](O[C@H]4C[C@H]5[C@@H]6CC=C7C[C@@H](O)CC[C@]7(C)[C@H]6CC[C@]5(C)[C@@]4(O)[C@H](C)C(=O)CCC(C)C)OC[C@@H]3O)OC[C@@H](O)[C@@H]2O)cc1 [OSW-1],14.3,
NCCS(=O)(=O)O [Taurine],10.7,
O=C(O[C@@H]1Cc2c(O)cc(O)cc2O[C@H]1c1ccc(O)c(O)c1)c1cc(O)c(O)c(O)c1 [(-)-Catechin gallate],30,
O=CNCC(=O)O [N-Formylglycine],18.6,
C[C@@H]1O[C@@H](O[C@H]2[C@H](OC(=O)[C@]34CCC(C)(C)C[C@H]3C3=CC[C@@H]5[C@@]6(C)C[C@H](O)[C@H](O[C@@H]7O[C@H](CO)[C@@H](O)[C@H](O)[C@H]7O)[C@](CO)(C(=O)O)[C@@H]6CC[C@@]5(C)[C@]3(C)C[C@H]4O)OC[C@H](O)[C@@H]2O)[C@H](O)[C@H](O)[C@H]1O[C@@H]1OC[C@@H](O)[C@H](O[C@@H]2OC[C@](O)(CO)[C@H]2O)[C@H]1O [Platyconic acid A],30.2,
COC(=O)[C@@H]1[C@H]2C[C@H]3c4[nH]c5ccccc5c4CCN3C[C@@H]2CC[C@@H]1O [Yohimbine],,50.5
COc1ccc(-c2cc(=O)c3c(O)cc(O)cc3o2)cc1 [Acacetin],12.6,
CC(=O)N[C@@H](CC(=O)N[C@@H](CCC(=O)O)C(=O)O)C(=O)O [Spaglumic Acid],11,
O=c1c(O)cccc2cc(O)c(O)c(O)c12 [Purpurogallin],14.6,
NC1CCCNC1=O (centres unmarked) [3-Amino-2-piperidinone],6.1,
O=C(O)c1cc2ccccc2[nH]1 [Indole-2-carboxylic acid],12.3,
Oc1cc(O)c2ccc(-c3ccc(O)c(O)c3)[o+]c2c1 [Luteolinidin (chloride)],44.9,
O=c1c(O)c(-c2cc(O)c(O)c(O)c2)oc2cc(O)cc(O)c12 [Myricetin],0,

SMILES,229E Inhibition rate [%],"229E Inhibition rate (229E Inhibition rate, 24 h) [%]"
OC[C@@H](O)[C@@H](O)[C@@H](O)[C@@H](O)CO [Allitol],7.5,
Nc1nc(=O)c2[nH]c(=O)cnc2[nH]1 [Xanthopterin (hydrate)],48.2,
COc1ccc(-c2cc(=O)c3c(OC)cc(OC)c(OC)c3o2)cc1 [6-Demethoxytangeretin],9.8,
"CC1CC[C@@]2(OC1)O[C@H]1C[C@H]3[C@@H]4CC=C5C[C@@H](O)C[C@@H](O)[C@]5(C)[C@H]4CC[C@]3(C)[C@H]1[C@@H]2C (stereo partly drawn) [25(R,S)-Ruscogenin]",11.9,
C/C=C1\C[C@@H](C)[C@](O)(CO)C(=O)OCC2=CCN3CC[C@@H](OC1=O)[C@@H]23 [Usaramine],10.5,
C[C@H]1[C@@H](O)O[C@@H]2O[C@@]3(C)CC[C@H]4[C@H](C)CC[C@@H]1[C@@]24OO3 [Dihydroartemisinin],30.5,
COc1ccc(-c2oc3c(CC=C(C)C)c(O[C@@H]4O[C@H](CO)[C@@H](O)[C@H](O)[C@H]4O)cc(O)c3c(=O)c2O[C@@H]2O[C@@H](C)[C@H](O)[C@@H](O)[C@H]2O)cc1 [Icariin],36.8,
O=C(O)/C=C/c1c[nH]c2ccccc12 [trans-3-Indoleacrylic acid],7.1,
COc1c(O[C@@H]2O[C@H](CO)[C@@H](O)[C@H](O)[C@H]2O)cc2c(c1O)C(=O)c1c(cc(C)c(O)c1OC)C2=O [Aurantio-obtusin β-D-glucoside],27.4,
CCn1cc(C(=O)O)c(=O)c2ccc(C)nc21 [Nalidixic acid],0,
CC(C)=C[C@H]1C[C@](C)(O)[C@@H]2[C@H]3CC[C@@H]4[C@@]5(C)CC[C@H](O[C@@H]6OC[C@H](O)[C@H](O[C@@H]7O[C@H](CO)[C@@H](O)[C@H](O)[C@H]7O)[C@H]6O[C@@H]6O[C@@H](CO)[C@H](O)[C@H]6O)C(C)(C)[C@@H]5CC[C@@]4(C)[C@@]34CO[C@@]2(C4)O1 [Bacopaside X],12.2,
O=C(O)CCC(=O)OC[C@@H](NC(=O)C(Cl)Cl)[C@H](O)c1ccc([N+](=O)[O-])cc1 [Chloramphenicol succinate (sodium)],54,
C[C@@H]1CCCC2=CC(=O)[C@@H]3[C@@H](C3(C)C)[C@]21C [Aristolone],29.3,
O[C@H]1[C@H](O)[C@@H](O)[C@H](O)[C@@H](O)[C@@H]1O [Scyllo-Inositol],12.7,
O=C(O)C#Cc1ccccc1 [Phenylpropiolic acid],44.9,
"CC(=O)[C@H]1CC[C@H]2[C@@H]3CC[C@H]4CC(=O)CC[C@]4(C)[C@H]3CC[C@]12C [5a-Pregnane-3,20-dione]",29.5,
C[C@]12CC[C@@H]3c4ccc(OS(=O)(=O)O)cc4CC[C@H]3[C@@H]1CCC2=O [Estropipate],,9.1

# Some of these compounds in order of SMILES length, smallest number first.
SMILES,229E Inhibition rate [%],"229E Inhibition rate (229E Inhibition rate, 24 h) [%]"
C[C@@H]1CCCC2=CC(=O)[C@@H]3[C@@H](C3(C)C)[C@]21C [Aristolone],29.3,
"CC1CC[C@@]2(OC1)O[C@H]1C[C@H]3[C@@H]4CC=C5C[C@@H](O)C[C@@H](O)[C@]5(C)[C@H]4CC[C@]3(C)[C@H]1[C@@H]2C (stereo partly drawn) [25(R,S)-Ruscogenin]",11.9,
COc1ccc(-c2oc3c(CC=C(C)C)c(O[C@@H]4O[C@H](CO)[C@@H](O)[C@H](O)[C@H]4O)cc(O)c3c(=O)c2O[C@@H]2O[C@@H](C)[C@H](O)[C@@H](O)[C@H]2O)cc1 [Icariin],36.8,
